Assay: general procedure: Fmoc solid-phase peptide synthesis; Fmoc-Ile-Wang resin; HBTU
Conditions: whole synthesis

**Q.** Which crude mass (scale 0.025 mmol) does the source give for “N—((CH2)6-tetraamine)-Gly-Arg-Val-Tyr-Ile-His-Pro-Ile-OH” here?
**A.** 25 mg

**Q.** For “cPn216-Gly-Arg-Val-Tyr-Ile-His-Pro-Ile-OH”, which isolated mass (scale 0.1 mmol) is on record?
**A.** 12 mg
